{
  "source": "paper PMC10741027",
  "about": "“Risk Assessment of Psychotropic Drugs on Mitochondrial Function Using In Vitro Assays” (Biomedicines, 2023)",
  "note": "No dose or concentration is given here for some results.",
  "data": [
    {"system": "HepG2 cells", "experiment": "Glu/Gal assay: cellular ATP (CellTiter-Glo) after 24 h in glucose or galactose media", "conditions": "Glu/Gal AC50 ratio", "values": [
      {"smiles": "CN(C)CCCN1c2ccccc2Sc2ccc(Cl)cc21", "note": "[Chlorpromazine]", "AC50 Fold Change": 0.941},
      {"smiles": "CN1CCN(C2=Nc3cc(Cl)ccc3Nc3ccccc32)CC1", "note": "[Clozapine]", "AC50 Fold Change": 0.933},
      {"smiles": "COC(=O)[C@H]1[C@H]2C[C@@H]3c4[nH]c5cc(OC)ccc5c4CCN3C[C@H]2C[C@@H](OC(=O)c2cc(OC)c(OC)c(OC)c2)[C@@H]1OC", "note": "[Reserpine]", "AC50 Fold Change": 0.619},
      {"smiles": "C=C(C)[C@H]1Cc2c(ccc3c2O[C@@H]2COc4cc(OC)c(OC)cc4[C@@H]2C3=O)O1", "note": "[Rotenone]", "AC50 Fold Change": 4600},
      {"smiles": "CN1CCN(CCCN2c3ccccc3Sc3ccc(C(F)(F)F)cc32)CC1", "note": "[Trifluoperazine]", "AC50 Fold Change": 0.885}
    ]}
  ]
}
